Source: paper PMC10989989, “The archaeal KEOPS complex possesses a functional Gon7 homolog and has an essential function independent of the cellular t^6A modification level” (mLife, 2023)

Amino acid sequences for entries named in this document (tags omitted). A change or cut given only in a name is not applied to a line headed by its entry.
UniProt F0NFC9: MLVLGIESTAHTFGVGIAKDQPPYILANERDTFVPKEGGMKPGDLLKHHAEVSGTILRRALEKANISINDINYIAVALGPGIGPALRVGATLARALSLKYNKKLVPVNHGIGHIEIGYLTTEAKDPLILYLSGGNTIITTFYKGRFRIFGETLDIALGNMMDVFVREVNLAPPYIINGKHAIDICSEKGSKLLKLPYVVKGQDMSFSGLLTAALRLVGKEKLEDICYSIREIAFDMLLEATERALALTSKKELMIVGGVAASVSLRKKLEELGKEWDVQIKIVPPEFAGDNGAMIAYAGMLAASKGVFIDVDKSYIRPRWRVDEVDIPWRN
UniProt F0NF65: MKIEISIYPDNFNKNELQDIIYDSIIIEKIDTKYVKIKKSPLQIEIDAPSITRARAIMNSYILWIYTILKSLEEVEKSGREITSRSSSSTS
UniProt F0NIH8: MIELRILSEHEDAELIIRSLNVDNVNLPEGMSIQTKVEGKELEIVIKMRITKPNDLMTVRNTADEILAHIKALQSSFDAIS

Biological target: His-tagged SisKae1 overexpressed in S. islandicus (Saccharolobus islandicus REY15A) (UniProt F0NFC9)
Assay: affinity purification with mass spectrometry; His-tagged subunits overexpressed in S. islandicRus REY15A; co-purified proteins identified by mass spectrometry

Substance	binding
Pcc1 of S. islandicus (endogenous) (from UniProt F0NF65)	binds
Pcc1‐like of S. islandicus (endogenous) (from UniProt F0NIH8)	binds

No constants are given. Whether binding was seen depends on the method and setting. In cells and extracts the contact can be indirect. A yes stands for co-enrichment or nearness to the bait. Other partners may have been found.
